# Results reported in PMC7948593, “Dynamic multimerization of Dab2–Myosin VI complexes regulates cargo processivity while minimizing cortical actin reorganization” (The Journal of Biological Chemistry, 2021).
# These are yes or no findings as the source states them, for the method shown. Some results given as binding are weak or reduced against the parent protein; the word gives no strength. Tags and fused reporters may be left off the sequences shown.
# T1: Dab2 myosin interacting region (MIR) with C-terminal eGFP (human) (UniProt P98082)
# T1 sequence: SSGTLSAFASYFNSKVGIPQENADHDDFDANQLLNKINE
# Target: T1, Dab2 myosin interacting region (MIR) with C-terminal eGFP (human)
# Assay: single-molecule TIRF motility assay (two-colour imaging, spot intensity); Dab2-MIR-GFP + Cy3-myosin VI complex at 50 pM on biotinylated F-actin with 2 mM ATP; 10 Hz; Cy3 spot intensity and run length from kymographs; both purified
binder,measurement,value
"Cy3-labeled full-length myosin VI (natural protein, human, UniProt Q9UM54 1-1294, looked up, Cy3 label, Myosin VI, human, the isoform containing both the long insert (LI) and short insert (SI); probably Myosin VI FL-SNAP (C-terminal SNAP, FLAG and 6X-His tags); Assay buffers held 10 uM calmodulin; The surface gliding assays used dark myosin VI FL-FLAG; also called Cy3-myosin VI; myosin VI FL) MEDGKPVWAPHPTDGFQMGNIVDIGPDSLTIEPLNQKGKTFLALINQVFPAEEDSKKDVEDNCSLMYLNEATLLHNIKVRYSKDRIYTYVANILIAVNPYFDIPKIYSSEAIKSYQGKSLGTRPPHVFAIADKAFRDMKVLKMSQSIIVSGESGAGKTENTKFVLRYLTESYGTGQDIDDRIVEANPLLEAFGNAKTVRNNNSSRFGKFVEIHFNEKSSVVGGFVSHYLLEKSRICVQGKEERNYHIFYRLCAGASEDIREKLHLSSPDNFRYLNRGCTRYFANKETDKQILQNRKSPEYLKAGSMKDPLLDDHGDFIRMCTAMKKIGLDDEEKLDLFRVVAGVLHLGNIDFEEAGSTSGGCNLKNKSAQSLEYCAELLGLDQDDLRVSLTTRVMLTTAGGTKGTVIKVPLKVEQANNARDALAKTVYSHLFDHVVNRVNQCFPFETSSYFIGVLDIAGFEYFEHNSFEQFCINYCNEKLQQFFNERILKEEQELYQKEGLGVNEVHYVDNQDCIDLIEAKLVGILDILDEENRLPQPSDQHFTSAVHQKHKDHFRLTIPRKSKLAVHRNIRDDEGFIIRHFAGAVCYETTQFVEKNNDALHMSLESLICESRDKFIRELFESSTNNNKDTKQKAGKLSFISVGNKFKTQLNLLLDKLRSTGASFIRCIKPNLKMTSHHFEGAQILSQLQCSGMVSVLDLMQGGYPSRASFHELYNMYKKYMPDKLARLDPRLFCKALFKALGLNENDYKFGLTKVFFRPGKFAEFDQIMKSDPDHLAELVKRVNHWLTCSRWKKVQWCSLSVIKLKNKIKYRAEACIKMQKTIRMWLCKRRHKPRIDGLVKVGTLKKRLDKFNEVVSVLKDGKPEMNKQIKNLEISIDTLMAKIKSTMMTQEQIQKEYDALVKSSEELLSALQKKKQQEEEAERLRRIQEEMEKERKRREEDEKRRRKEEEERRMKLEMEAKRKQEEEERKKREDDEKRIQAEVEAQLARQKEEESQQQAVLEQERRDRELALRIAQSEAELISDEAQADLALRRSLDSYPVSKNDGTRPKMTPEQMAKEMSEFLSRGPAVLATKAAAGTKKYDLSKWKYAELRDTINTSCDIELLAACREEFHRRLKVYHAWKSKNKKRNTETEQRAPKSVTDYDFAPFLNNSPQQNPAAQIPARQREIEMNRQQRFFRIPFIRPADQYKDPQSKKKGWWYAHFDGPWIARQMELHPDKPPILLVAGKDDMEMCELNLEETGLTRKRGAEILPRQFEEIWERCGGIQYLQNAIESRQARPTYATAMLQSLLK",binding,binds weakly
